Laboratory results published in patent US20230286995A1, “METABOLICALLY STABLE PYRIMIDINYL DIHYDROQUINOXALINONES AS TUBULIN POLYMERIZATION INHIBITORS” (UNIVERSITY OF TENNESSEE RESEARCH FOUNDATION, priority 2022, published 2023).

Legend:
MDA-MB-231/VxR = assay: Cytotoxicity assay (MTS, 72 h); assay type: cell-based; conditions: Homo sapiens, MDA-MB-231, read-out: IC50 ± SEM (nM) MDA-MB-231/VXR
A549 = assay: cells; conditions: Homo sapiens, A549, read-out: IC50 ± SEM (nM) A549
MDA-MB-231/TxR = assay: Cytotoxicity assay (MTS, 72 h); assay type: cell-based; conditions: Homo sapiens, read-out: IC50 ± SEM (nM) MDA-MB-231/TxR
MDA-MB-231 = assay: Cytotoxicity assay (MTS, 72 h); assay type: cell-based; conditions: Homo sapiens, MDA-MB-231, read-out: IC50 ± SEM (nM) MDA-MB-231
A375/TxR = assay: Cytotoxicity assay (MTS, 72 h); assay type: cell-based; conditions: Homo sapiens, Table 2, paclitaxel-resistant, read-out: IC50 ± SEM (nM) A375/TxR

SMILES: COc1cc2c(c(OC)c1OC)-c1ccc(OC)c(=O)cc1[C@@H](NC(C)=O)CC2 [Colchicine, reference compound]
- IC50 (MDA-MB-231/VxR): 24 ± 4.4 nM
- IC50 (A549): 77.6 ± 2.1 nM
- IC50 (MDA-MB-231/TxR): 15.8 ± 2.3 nM
- IC50 (MDA-MB-231): 18.9 ± 3.2 nM
- IC50 (A375/TxR): 23.6 ± 3.2 nM
